Assay results from publication doi:10.1101/711424.
Results are given in words; binding and its absence hold for the method and conditions named. Binding seen in cells or lysates may run through a third protein. Some results given as binding are weak or reduced against the parent protein; the word gives no strength.

Chains of the proteins cited; added tags and fusions are not shown.
UniProt P54252: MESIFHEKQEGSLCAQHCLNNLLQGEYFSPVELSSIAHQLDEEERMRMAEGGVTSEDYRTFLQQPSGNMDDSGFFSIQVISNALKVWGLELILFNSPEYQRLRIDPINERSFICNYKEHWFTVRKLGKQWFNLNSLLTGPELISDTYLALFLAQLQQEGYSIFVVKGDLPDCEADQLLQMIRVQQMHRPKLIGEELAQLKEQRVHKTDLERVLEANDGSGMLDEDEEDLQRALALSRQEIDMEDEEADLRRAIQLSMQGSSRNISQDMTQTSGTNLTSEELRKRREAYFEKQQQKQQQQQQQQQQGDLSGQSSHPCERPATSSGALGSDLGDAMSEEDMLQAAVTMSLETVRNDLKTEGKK

What was measured:
[1] = target: T1, Arginine/Serine-rich splicing factor 7 (SRSF7) (human (endogenous in SH-SY5Y)) (UniProt Q16629); assay: co-IP
T1 sequence: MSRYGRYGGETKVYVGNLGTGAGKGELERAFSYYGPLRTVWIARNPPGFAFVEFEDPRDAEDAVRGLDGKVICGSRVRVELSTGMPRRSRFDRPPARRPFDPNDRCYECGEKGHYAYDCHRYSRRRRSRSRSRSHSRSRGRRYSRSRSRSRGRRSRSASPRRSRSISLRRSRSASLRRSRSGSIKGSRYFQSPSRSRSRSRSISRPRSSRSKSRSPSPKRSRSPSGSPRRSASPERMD

[2] = target: T1, Arginine/Serine-rich splicing factor 7 (SRSF7) (human (endogenous in SH-SY5Y)); assay: proximity ligation

- binding [1]: binds
- binding [2]: binds
Substance: Ataxin-3 (ATXN3) (from UniProt P54252 1-361)
